Consider three molecules from article PMC10294335.

Chains of the proteins cited; added tags and fusions are not shown.
UniProt P05412: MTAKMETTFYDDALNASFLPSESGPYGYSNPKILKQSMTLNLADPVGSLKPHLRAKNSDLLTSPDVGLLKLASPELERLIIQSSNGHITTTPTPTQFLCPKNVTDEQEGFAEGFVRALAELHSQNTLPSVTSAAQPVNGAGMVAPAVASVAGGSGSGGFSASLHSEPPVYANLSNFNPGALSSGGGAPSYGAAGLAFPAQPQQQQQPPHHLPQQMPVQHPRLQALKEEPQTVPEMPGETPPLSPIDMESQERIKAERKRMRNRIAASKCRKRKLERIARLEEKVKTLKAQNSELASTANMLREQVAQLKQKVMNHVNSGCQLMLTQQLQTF
UniProt P35222: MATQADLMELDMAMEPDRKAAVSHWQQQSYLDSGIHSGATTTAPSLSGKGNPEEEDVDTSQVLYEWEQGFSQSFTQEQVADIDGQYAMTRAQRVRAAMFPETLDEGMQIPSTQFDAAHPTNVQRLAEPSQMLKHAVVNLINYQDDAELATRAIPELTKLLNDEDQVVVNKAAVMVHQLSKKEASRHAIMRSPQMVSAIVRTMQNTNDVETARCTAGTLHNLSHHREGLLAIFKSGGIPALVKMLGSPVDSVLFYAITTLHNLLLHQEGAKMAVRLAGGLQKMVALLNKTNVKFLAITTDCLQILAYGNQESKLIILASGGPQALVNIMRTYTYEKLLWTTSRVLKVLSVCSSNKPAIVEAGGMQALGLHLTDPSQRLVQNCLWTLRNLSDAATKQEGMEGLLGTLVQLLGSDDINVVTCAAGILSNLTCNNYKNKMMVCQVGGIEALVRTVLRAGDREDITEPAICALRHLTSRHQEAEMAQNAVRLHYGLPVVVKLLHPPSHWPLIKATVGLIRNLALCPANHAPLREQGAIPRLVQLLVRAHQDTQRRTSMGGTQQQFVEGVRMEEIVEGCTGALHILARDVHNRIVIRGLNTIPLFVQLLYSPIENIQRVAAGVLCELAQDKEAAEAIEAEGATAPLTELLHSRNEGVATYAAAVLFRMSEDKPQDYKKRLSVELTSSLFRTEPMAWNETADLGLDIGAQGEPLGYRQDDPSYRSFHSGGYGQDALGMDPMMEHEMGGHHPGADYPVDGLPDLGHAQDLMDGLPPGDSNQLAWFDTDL

These are yes or no findings as the source states them, for the method shown. For part of these data: In cells and extracts the contact can be indirect. Some results given as binding are weak or reduced against the parent protein; the word gives no strength.

Experiment [1] has as its target T1, NONO, endogenous in breast cancer cells (human (endogenous in MCF-7)) (UniProt Q15233).
T1 sequence: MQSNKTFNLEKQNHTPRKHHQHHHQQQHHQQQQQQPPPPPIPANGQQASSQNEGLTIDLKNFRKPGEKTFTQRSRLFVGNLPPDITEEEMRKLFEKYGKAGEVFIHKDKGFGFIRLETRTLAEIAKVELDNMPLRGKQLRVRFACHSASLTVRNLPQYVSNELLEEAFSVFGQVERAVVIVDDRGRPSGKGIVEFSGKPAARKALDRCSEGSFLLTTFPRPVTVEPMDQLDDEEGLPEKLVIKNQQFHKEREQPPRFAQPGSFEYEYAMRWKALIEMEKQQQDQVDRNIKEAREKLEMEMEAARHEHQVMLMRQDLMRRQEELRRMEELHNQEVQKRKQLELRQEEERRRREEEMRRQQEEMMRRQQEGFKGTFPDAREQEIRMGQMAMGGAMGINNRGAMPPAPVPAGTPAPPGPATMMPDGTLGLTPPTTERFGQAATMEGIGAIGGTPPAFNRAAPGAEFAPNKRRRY
In words: co-IP; anti-NONO (mouse IgG control) on protein G Dynabeads; lysate in 50 mM HEPES, 150 mM NaCl, 1% NP-40, 2 mM EDTA; overnight at 4 °C; Western blot. In general terms: Immunoblotting shows a protein as a band on a membrane.

Experiment [2] has as its target c-Jun, in yeast two-hybrid (UniProt P05412). In words: two-hybrid; NONO in pGADT7 (Y187) mated with pGBKT7 constructs (Y2H Gold); diploids selected on SD/-Leu/-Trp, interaction read as growth on SD/-Leu/-Trp/-His/-Ade.

Consider “β-catenin, endogenous in breast cancer cells (from UniProt P35222 1-781)”, for which the binding entry in experiment [1] is “binds”.
On the same count and under the same terms, the entry for “c-Jun, endogenous in MCF-7 cells (from UniProt P05412 1-331)” is “binds”.

B1: Non-POU domain-containing octamer-binding protein (NONO), full-length human, in pGADT7 (protein, UniProt Q15233 1-471)
chain: T1 sequence
As for B1, the binding entry in experiment [2] is recorded as “binds”.
